Test results taken from publication PMC10880924, “Small molecule WDR5 inhibitors down-regulate lncRNA expression” (RSC Medicinal Chemistry, 2024).
“Also recorded” adds a separate entry of the source.

Columns and labels:
[1] = system: HOXC13-AS–WDR5^WT complex; conditions: iv-RIP, U-2 OS RNA, 10 μM
HOTTIP–WDR5^WT complex = conditions: iv-RIP, U-2 OS RNA, 10 μM

For `CNC(=O)c1cc(C2(C#N)CCC2)cc(NS(=O)(=O)c2cc(Br)cc(Cl)c2O)c1O` [7k, 3-((5-Bromo-3-chloro-2-hydroxyphenyl)sulfonamido)-5-(1cyanocyclobutyl)-2-hydroxy-N-methylbenzamide], the “inhibition of HOXC13-AS–WDR5^WT complex formation” value [1] was “could inhibit lncRNA–WDR5 formation to a level almost similar to the WDR5^F266A mutant; also recorded: could inhibit HOTTIP–WDR5^WT and HOXC13-AS–WDR5^WT complex formation (Fig. 3) but the effect was moderate” and the “inhibition of HOTTIP–WDR5^WT complex formation” value (HOTTIP–WDR5^WT complex) was “could inhibit lncRNA–WDR5 formation to a level almost similar to the WDR5^F266A mutant; also recorded: could inhibit HOTTIP–WDR5^WT and HOXC13-AS–WDR5^WT complex formation (Fig. 3) but the effect was moderate”.
